# From patent publication US20030211466
# Results from cells or extracts need not show a direct contact. For at least one entry, the source does not settle the construct or the ends of the probe.
# How the values were obtained:
# HuB (Hel-N2, ELAV-like) [1] = test: binding assay; conditions: protein in cells
# HuB (Hel-N2, ELAV-like) [2] = test: SELEX; conditions: CITED previously defined in vitro binding sequence; protein in cells
sequence,measurement,setting,value
"AAAUUUUAUUAAGUUA [HOX2.5 mRNA, 3'UTR motif]",binding result,"HuB (Hel-N2, ELAV-like) [1]; whole mRNA enriched after retinoic acid, further motifs SEQ 5,7",binds
"AAUGGUUUAUAUUUAUGAU [Integrin alpha 5 mRNA, 3'UTR motif]",binding result,"HuB (Hel-N2, ELAV-like) [1]; whole mRNA enriched after retinoic acid, further motif SEQ 22",binds
"AUGUCUUGUUCUUUGUGUUUUUAGGAU [cyclin D2 mRNA, 3'UTR motif]",binding result,"HuB (Hel-N2, ELAV-like) [1]; RNP immunoprecipitation of whole mRNA, motif itself not assayed",binds
"AUUUUCUAUUCCUUUUUUAUUUUAUGUCAUUUUUUUA [CD44 mRNA, 3'UTR motif]",binding result,"HuB (Hel-N2, ELAV-like) [1]; whole mRNA enriched in HuB mRNP after retinoic acid, motif not assayed alone",binds
"UAAAAAACCAAAUUUGAUUGGCUCUAAACA [IGF-2 mRNA, 3'UTR motif]",binding result,"HuB (Hel-N2, ELAV-like) [1]; whole mRNA in HuB mRNP only after retinoic acid, further motifs SEQ 3,4",binds
"UAUAAUUUUUAAUUUUUUAUUAUUUU [Integrin beta mRNA, 3'UTR motif]",binding result,"HuB (Hel-N2, ELAV-like) [1]; whole mRNA in HuB mRNP, further motif SEQ 26",binds
"UAUUUUGUGGUUUUAUUUUACUUUGUACUU [Egr-1/Zif268 mRNA, 3'UTR motif]",binding result,"HuB (Hel-N2, ELAV-like) [1]; whole mRNA enriched after retinoic acid, further motif SEQ 16",binds
"UAUUUUUUUUCUUUUUUUUUUUUGGUCUUUAU [GADD45 mRNA, 3'UTR motif]",binding result,"HuB (Hel-N2, ELAV-like) [1]; whole mRNA enriched after retinoic acid, further motif SEQ 11",binds
"UGCAUCGAUCCGUUGAUUUACUACU [Cf2r mRNA, 3'UTR motif]",binding result,"HuB (Hel-N2, ELAV-like) [1]; whole mRNA enriched after retinoic acid",binds
"UUAUGAAUGUUAUAUUUGU [CTCF mRNA, 3'UTR motif]",binding result,"HuB (Hel-N2, ELAV-like) [1]; whole mRNA enriched after retinoic acid, further motif SEQ 28",binds
"UUCUGUUAAAUAUUUUUAUAUACUGCUUUCUUUUUU [Nexin 1 mRNA, 3'UTR motif]",binding result,"HuB (Hel-N2, ELAV-like) [1]; whole mRNA enriched after retinoic acid, further motifs SEQ 13,14",binds
UUUAUUU [HuB in vitro consensus],selection result,"HuB (Hel-N2, ELAV-like) [2]",selected
"UUUUGUUUUUCUCCCUUUUUUAGUUUUUUCAAA [J6 (inhibitor J6) mRNA, 3'UTR motif]",binding result,"HuB (Hel-N2, ELAV-like) [1]; whole mRNA enriched after retinoic acid, further motif SEQ 8, listing differs from table",binds
"UUUUUUAUUUUCUGUAUUUUUU [Neuronal cadherin mRNA, 3'UTR motif]",binding result,"HuB (Hel-N2, ELAV-like) [1]; whole mRNA enriched after retinoic acid, further motifs SEQ 18-20",binds
"UUUUUUUUUCCUUUUAAUUGUAAAUGGUUCUUU [TGF beta 2 mRNA, 3'UTR motif]",binding result,"HuB (Hel-N2, ELAV-like) [1]; whole mRNA enriched after retinoic acid, further motifs SEQ 30-35",binds
